These results are taken from PMC3818319.

Amino acid sequences for entries named in this document (tags omitted). A change or cut given only in a name is not applied to a line headed by its entry.
UniProt Q9VB11: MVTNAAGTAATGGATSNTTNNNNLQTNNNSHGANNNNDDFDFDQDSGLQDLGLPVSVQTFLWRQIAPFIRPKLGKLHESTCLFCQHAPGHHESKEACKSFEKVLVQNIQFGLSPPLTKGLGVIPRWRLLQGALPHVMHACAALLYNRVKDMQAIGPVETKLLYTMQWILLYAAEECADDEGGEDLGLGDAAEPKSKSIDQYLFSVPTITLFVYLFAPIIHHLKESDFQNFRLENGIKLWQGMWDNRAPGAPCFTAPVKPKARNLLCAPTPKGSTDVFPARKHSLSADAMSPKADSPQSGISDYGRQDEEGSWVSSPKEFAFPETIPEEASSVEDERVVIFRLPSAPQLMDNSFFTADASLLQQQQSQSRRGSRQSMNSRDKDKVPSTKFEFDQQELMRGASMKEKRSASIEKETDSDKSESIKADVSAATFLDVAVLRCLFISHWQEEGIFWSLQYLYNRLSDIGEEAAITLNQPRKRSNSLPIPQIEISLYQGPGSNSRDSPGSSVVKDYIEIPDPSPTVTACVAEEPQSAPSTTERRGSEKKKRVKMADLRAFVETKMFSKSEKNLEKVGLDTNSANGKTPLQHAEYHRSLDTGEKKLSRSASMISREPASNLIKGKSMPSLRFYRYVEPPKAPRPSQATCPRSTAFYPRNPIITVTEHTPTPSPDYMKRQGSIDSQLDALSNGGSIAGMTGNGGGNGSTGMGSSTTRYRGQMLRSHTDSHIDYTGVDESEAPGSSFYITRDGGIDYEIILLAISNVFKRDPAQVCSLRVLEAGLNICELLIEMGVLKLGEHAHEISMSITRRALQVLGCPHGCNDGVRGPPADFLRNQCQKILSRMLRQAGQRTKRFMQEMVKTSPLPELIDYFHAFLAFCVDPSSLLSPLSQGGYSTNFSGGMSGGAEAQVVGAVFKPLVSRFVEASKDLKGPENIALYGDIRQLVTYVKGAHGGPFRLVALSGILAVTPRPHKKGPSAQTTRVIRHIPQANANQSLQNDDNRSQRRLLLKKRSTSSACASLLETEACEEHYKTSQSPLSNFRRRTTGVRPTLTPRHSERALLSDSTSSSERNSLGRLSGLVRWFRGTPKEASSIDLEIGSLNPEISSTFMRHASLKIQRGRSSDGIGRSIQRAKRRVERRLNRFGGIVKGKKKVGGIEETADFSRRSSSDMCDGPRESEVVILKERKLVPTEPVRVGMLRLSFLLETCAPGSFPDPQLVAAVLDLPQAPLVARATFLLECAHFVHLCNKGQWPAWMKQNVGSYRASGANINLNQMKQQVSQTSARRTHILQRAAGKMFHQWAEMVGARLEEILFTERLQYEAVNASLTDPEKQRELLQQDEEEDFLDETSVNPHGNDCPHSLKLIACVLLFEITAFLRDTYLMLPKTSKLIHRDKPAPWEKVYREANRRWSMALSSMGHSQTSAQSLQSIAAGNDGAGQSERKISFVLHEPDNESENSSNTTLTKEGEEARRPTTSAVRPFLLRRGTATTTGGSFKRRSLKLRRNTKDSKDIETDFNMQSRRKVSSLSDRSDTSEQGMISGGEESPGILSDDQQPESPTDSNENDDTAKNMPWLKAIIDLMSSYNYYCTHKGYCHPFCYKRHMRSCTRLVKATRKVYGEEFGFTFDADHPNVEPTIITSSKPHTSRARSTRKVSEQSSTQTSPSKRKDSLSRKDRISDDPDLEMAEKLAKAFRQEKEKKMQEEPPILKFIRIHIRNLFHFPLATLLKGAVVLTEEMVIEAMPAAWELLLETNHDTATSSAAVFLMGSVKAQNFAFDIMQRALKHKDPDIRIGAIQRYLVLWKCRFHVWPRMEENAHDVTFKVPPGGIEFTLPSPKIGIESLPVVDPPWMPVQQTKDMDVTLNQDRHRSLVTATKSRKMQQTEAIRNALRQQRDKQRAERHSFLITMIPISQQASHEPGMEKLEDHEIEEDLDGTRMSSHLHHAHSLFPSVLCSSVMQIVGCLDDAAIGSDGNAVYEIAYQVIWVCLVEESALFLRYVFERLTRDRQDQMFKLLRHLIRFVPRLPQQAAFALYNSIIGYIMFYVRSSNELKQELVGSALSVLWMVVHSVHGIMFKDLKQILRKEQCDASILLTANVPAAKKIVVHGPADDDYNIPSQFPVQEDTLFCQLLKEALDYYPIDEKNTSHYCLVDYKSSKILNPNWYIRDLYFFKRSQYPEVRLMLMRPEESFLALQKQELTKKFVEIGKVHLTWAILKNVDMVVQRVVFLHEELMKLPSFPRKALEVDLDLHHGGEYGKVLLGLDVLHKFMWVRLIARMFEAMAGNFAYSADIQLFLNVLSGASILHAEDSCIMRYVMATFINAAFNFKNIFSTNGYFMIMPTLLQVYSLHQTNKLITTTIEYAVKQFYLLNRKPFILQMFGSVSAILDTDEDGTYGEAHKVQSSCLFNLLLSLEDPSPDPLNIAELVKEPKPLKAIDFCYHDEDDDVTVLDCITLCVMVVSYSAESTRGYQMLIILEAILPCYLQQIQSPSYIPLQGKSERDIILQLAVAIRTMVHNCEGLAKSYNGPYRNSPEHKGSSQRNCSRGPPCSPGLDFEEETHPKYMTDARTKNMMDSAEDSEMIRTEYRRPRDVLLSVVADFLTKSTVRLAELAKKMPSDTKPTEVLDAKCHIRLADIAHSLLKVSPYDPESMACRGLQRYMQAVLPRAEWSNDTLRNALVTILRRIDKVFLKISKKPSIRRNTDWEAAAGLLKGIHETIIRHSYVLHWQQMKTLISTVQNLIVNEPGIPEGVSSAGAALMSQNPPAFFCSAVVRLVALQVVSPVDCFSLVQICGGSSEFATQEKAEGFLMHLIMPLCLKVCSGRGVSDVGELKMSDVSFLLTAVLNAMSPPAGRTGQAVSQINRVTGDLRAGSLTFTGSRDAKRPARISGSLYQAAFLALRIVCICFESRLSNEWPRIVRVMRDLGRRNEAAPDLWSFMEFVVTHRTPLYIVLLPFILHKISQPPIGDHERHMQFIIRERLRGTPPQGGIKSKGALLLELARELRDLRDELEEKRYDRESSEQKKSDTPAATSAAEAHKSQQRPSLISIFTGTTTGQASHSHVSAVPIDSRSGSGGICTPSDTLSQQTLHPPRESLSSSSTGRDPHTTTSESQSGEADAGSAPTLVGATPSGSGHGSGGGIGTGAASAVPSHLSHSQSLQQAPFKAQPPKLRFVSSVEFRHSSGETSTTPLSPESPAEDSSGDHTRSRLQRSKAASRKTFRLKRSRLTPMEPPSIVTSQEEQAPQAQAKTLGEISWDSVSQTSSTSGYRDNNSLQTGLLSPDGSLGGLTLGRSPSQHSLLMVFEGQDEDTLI
UniProt E1JIP9: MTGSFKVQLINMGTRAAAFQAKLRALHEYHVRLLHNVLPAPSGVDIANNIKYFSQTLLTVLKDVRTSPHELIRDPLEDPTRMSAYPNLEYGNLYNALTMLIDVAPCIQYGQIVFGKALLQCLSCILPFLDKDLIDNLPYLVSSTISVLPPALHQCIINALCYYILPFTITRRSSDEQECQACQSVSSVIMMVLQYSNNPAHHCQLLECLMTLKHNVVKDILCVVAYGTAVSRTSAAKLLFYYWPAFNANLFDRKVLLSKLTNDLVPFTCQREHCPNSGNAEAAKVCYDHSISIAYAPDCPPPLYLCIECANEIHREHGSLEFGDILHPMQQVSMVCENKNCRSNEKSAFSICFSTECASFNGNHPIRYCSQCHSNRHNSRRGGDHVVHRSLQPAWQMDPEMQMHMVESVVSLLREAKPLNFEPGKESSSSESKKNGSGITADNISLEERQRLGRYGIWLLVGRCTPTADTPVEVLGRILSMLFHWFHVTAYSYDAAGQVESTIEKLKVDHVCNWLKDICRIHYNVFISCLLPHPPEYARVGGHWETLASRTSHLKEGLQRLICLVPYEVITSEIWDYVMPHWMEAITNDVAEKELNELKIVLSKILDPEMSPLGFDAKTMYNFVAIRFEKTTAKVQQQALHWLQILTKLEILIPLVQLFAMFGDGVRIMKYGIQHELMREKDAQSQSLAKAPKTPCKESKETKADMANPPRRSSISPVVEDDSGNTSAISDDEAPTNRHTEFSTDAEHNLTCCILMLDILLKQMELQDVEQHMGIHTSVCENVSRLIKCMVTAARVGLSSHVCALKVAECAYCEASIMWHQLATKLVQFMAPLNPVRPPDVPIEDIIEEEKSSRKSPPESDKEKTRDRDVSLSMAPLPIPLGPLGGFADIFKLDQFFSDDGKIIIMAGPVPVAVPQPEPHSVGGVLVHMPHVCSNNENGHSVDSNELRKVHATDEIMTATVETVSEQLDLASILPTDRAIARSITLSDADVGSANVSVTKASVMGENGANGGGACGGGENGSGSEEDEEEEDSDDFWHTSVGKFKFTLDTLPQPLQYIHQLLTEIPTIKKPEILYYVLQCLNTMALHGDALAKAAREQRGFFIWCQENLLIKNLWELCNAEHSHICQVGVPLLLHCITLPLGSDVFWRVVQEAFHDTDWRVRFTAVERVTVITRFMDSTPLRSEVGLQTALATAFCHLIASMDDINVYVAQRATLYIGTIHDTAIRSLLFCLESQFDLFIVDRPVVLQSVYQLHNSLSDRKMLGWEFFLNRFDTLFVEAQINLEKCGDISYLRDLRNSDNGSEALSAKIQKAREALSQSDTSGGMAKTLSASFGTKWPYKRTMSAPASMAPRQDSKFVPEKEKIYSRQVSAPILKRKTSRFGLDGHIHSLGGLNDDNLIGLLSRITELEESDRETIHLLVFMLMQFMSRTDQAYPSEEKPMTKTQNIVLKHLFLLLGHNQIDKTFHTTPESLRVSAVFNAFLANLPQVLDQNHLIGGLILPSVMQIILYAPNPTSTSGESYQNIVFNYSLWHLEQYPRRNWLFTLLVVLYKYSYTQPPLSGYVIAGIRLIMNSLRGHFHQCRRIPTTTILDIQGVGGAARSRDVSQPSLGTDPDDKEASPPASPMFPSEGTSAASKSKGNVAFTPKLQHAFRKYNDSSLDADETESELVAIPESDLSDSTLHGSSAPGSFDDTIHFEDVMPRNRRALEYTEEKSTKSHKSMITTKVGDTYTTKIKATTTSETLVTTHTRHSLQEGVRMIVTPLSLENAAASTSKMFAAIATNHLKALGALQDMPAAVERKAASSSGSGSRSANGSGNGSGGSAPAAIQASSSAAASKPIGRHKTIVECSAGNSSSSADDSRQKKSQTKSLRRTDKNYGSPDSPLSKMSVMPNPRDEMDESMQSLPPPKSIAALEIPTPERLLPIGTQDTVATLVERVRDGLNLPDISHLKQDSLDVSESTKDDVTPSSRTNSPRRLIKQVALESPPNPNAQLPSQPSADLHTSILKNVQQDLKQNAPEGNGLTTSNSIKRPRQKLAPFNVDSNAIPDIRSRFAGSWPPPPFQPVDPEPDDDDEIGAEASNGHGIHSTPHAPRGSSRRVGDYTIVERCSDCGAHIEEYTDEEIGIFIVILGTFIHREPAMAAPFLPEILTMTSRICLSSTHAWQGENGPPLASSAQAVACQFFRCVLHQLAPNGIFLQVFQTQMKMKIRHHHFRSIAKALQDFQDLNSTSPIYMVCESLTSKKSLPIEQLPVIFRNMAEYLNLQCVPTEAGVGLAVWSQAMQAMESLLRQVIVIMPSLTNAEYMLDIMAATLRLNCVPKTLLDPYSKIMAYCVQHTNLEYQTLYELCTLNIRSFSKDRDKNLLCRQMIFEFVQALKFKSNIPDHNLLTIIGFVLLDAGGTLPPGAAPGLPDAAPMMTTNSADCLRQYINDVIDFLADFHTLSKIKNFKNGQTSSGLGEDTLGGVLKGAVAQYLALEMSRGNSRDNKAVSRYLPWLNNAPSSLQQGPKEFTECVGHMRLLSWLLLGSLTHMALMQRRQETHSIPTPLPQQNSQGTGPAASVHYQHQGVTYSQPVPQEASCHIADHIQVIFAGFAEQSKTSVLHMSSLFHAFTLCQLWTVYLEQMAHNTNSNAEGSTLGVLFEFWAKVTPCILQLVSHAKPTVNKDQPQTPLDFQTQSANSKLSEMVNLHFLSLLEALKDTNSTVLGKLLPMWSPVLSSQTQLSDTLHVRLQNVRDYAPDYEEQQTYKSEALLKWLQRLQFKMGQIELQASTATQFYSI

No constants are given. Whether binding was seen depends on the method and setting. Binding seen in cells or lysates may run through a third protein. Binding can be weak; no strength is given.

The assay concerns the target UNC80 (Drosophila melanogaster (in adult head extracts)) (UniProt Q9VB11). In words: co-IP; membrane preparations of adult Drosophila head extracts, solubilised in 1% n-dodecyl-beta-D-maltopyranoside, 1% Anapoe-58 in 150 mM NaCl, 50 mM Tris pH 7.4, 1 mM EDTA; 2 ul rabbit or mouse antiserum for 1 h at room temperature, Protein-A Sepharose for 1 h at 4 C, three washes with detergents; Western blot. (Immunoblotting shows a protein as a band on a membrane.)

Consider UNC79 (from UniProt E1JIP9), for which the binding result is recorded as “binds”.
